In publication PMC4231120 one finds binding data, which are given here for three molecules.

Results are given in words; binding and its absence hold for the method and conditions named. In cells and extracts the contact can be indirect. Here binding means that the protein was enriched with, or labelled near, the bait; the list need not be complete. Sequences can lack the tags named with a protein.

The test concerns the target T1, PLASMODESMATA-LOCATED PROTEIN 1 (PDLP1) fused to GFP (Arabidopsis) (UniProt Q8GXV7).
T1 sequence: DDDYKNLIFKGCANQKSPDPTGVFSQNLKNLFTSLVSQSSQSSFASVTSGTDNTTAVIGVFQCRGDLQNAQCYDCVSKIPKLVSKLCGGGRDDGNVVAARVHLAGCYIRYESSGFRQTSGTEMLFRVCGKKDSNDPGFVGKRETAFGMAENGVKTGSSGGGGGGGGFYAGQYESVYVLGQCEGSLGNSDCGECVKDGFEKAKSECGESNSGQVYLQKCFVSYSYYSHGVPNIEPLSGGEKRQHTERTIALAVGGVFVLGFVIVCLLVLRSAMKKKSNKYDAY
Briefly: affinity purification with mass spectrometry; PDLP1-GFP immunoprecipitated with GFP-Trap beads from leaf extracts of PDLP1 OE plants, Hpa-infected and uninfected; 50 mM Tris-HCl pH 7.5, 150 mM NaCl, 10% glycerol, 1 mM EDTA, 5 mM DTT, 1% IGEPAL CA630; 4°C, 2 h; bands from SDS-PAGE analysed by LC-MS/MS; at least three replicate IPs.

B1: PATELLIN 1 (PATL1) (protein, UniProt Q56WK6 1-573)
chain: MAQEEVQKSADVAAAPVVKEKPITDKEVTIPTPVAEKEEVAAPVSDEKAVPEKEVTPEKEAPAAEAEKSVSVKEEETVVVAEKVVVLTAEEVQKKALEEFKELVREALNKREFTAPVTPVKEEKTEEKKTEEETKEEEKTEEKKEETTTEVKVEEEKPAVPAAEEEKSSEAAPVETKSEEKPEEKAEVTTEKASSAEEDGTKTVEAIEESIVSVSPPESAVAPVVVETVAVAEAEPVEPEEVSIWGVPLLQDERSDVILTKFLRARDFKVKEALTMLKNTVQWRKENKIDELVESGEEVSEFEKMVFAHGVDKEGHVVIYSSYGEFQNKELFSDKEKLNKFLSWRIQLQEKCVRAIDFSNPEAKSSFVFVSDFRNAPGLGKRALWQFIRRAVKQFEDNYPEFAAKELFINVPWWYIPYYKTFGSIITSPRTRSKMVLAGPSKSADTIFKYIAPEQVPVKYGGLSKDTPLTEETITEAIVKPAANYTIELPASEACTLSWELRVLGADVSYGAQFEPTTEGSYAVIVSKTRKIGSTDEPVITDSFKVGEPGKIVITIDNQTSKKKKVLYRFKTQ
Turning to B1, the binding result is “binds”.

B2: WALL-ASSOCIATED KINASE 2 (WAK2) (protein, UniProt Q9LMP1 24-732)
chain: QPRKECQTRCGNVAVEYPFGTSPGCYYPGDESFNLTCNEQEKLFFGNMPVINMSLSGQLRVRLVRSRVCYDSQGKQTDYIAQRTTLGNFTLSELNRFTVVGCNSYAFLRTSGVEKYSTGCISICDSATTKNGSCSGEGCCQIPVPRGYSFVRVKPHSFHNHPTVHLFNPCTYAFLVEDGMFDFHALEDLNNLRNVTTFPVVLDWSIGDKTCKQVEYRGVCGGNSTCFDSTGGTGYNCKCLEGFEGNPYLPNGCQDINECISSRHNCSEHSTCENTKGSFNCNCPSGYRKDSLNSCTRKVRPEYFRWTQIFLGTTIGFSVIMLGISCLQQKIKHRKNTELRQKFFEQNGGGMLIQRVSGAGPSNVDVKIFTEKGMKEATNGYHESRILGQGGQGTVYKGILPDNSIVAIKKARLGNRSQVEQFINEVLVLSQINHRNVVKVLGCCLETEVPLLVYEFINSGTLFDHLHGSLYDSSLTWEHRLRIATEVAGSLAYLHSSASIPIIHRDIKTANILLDKNLTAKVADFGASRLIPMDKEQLTTIVQGTLGYLDPEYYNTGLLNEKSDVYSFGVVLMELLSGQKALCFERPHCPKNLVSCFASATKNNRFHEIIDGQVMNEDNQREIQEAARIAAECTRLMGEERPRMKEVAAELEALRVKTTKYKWSDQYRETGEIEHLLGVQILSAQGETSSSIGYDSIRNVTTLDIEAGR
Take B2: the binding entry is “binds”.

B3: CALNEXIN 1 (CNX1) (protein, UniProt P29402 21-530)
chain: KLCYCDDQTVLYESFDEPFDGRWIVSKNSDYEGVWKHAKSEGHEDYGLLVSEKARKYGIVKELDEPLNLKEGTVVLQYEVRFQEGLECGGAYLKYLRPQEAGWTPQGFDSESPYSIMFGPDKCGGTNKVHFILKHKNPKSGEYVEHHLKFPPSVPYDKLSHVYTAILKPDNEVRILVDGEEKKKANLLSGEDFEPALIPAKTIPDPEDKKPEDWDERAKIPDPNAVKPEDWDEDAPMEIEDEEAEKPEGWLDDEPEEVDDPEATKPEDWDDEEDGMWEAPKIDNPKCEAAPGCGEWKRPMKRNPAYKGKWSSPLIDNPAYKGIWKPRDIPNPDYFELDRPDYEPIAAIGIEIWTMQDGILFDNILIAKDEKVAETYRQTTWKPKFDVEKEKQKAEEEAAGSADGLKSYQKVVFDLLNKVADLSFLSAYKSKITELIEKAEQQPNLTIGVLVAIVVVFFSLFLKLIFGGKKAAAPVEKKKPEVAESSKSGDEAEKKEETAAPRKRQPRRDN
For B3, the binding result is given as “binds”.
